Laboratory results from article PMC7807703.
No constants are given. Whether binding was seen depends on the method and setting. In cells and extracts the contact can be indirect. Some entries that bind do so weakly or less than the wild type. For some assays here: Where a sequence is shown, tags or fusion partners need not be part of it.

Chains of the proteins cited; added tags and fusions are not shown. Residues count along the entry.
UniProt Q9BXM7, residues 78-581: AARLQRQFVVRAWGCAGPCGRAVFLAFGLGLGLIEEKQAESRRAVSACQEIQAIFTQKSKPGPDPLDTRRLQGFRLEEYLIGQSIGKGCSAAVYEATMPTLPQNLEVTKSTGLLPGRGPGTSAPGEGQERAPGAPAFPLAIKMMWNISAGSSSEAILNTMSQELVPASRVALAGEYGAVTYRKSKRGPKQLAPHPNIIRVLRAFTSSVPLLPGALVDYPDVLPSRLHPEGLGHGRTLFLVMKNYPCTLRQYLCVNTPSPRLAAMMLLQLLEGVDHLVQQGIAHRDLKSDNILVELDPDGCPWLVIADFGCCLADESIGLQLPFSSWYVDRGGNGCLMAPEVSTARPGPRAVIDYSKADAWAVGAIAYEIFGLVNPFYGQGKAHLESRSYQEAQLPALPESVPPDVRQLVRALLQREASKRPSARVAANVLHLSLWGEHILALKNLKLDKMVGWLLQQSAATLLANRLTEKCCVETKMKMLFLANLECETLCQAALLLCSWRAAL

Legend:
[1] = target: T1, Stomatin-like protein 2 (STOML2), endogenous (human (endogenous in HCCLM3)) (UniProt Q9UJZ1); test: co-IP; endogenous STOML2 in HCCLM3 cells immunoprecipitated with anti-STOML2 antibody, rabbit IgG as nonspecific control; blot with anti-PINK1 antibody
T1 sequence: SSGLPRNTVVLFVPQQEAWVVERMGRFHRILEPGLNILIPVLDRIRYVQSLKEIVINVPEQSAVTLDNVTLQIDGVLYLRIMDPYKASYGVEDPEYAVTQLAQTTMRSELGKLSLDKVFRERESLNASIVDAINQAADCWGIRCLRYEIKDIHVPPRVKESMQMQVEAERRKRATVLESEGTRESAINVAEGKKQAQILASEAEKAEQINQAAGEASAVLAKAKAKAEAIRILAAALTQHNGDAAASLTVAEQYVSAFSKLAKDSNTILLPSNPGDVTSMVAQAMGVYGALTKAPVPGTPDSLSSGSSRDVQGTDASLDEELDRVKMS

[2] = target: T2, STOML2-Flag (Stomatin-like protein 2 with a Flag tag) (human) (UniProt Q9UJZ1); test: co-IP; SMMC-7721 cells transfected with STOML2-Flag or empty vector, CCCP treatment; immunoprecipitation with anti-Flag mAb, blot with anti-PINK1 antibody
T2 sequence: T1 sequence

binding [1]: binds
binding [2]: binds
Substance: PTEN-induced putative kinase 1 (PINK1) (from UniProt Q9BXM7 78-581)
